Laboratory results published in paper PMC10688885.

Molecular target: CdxB (C. crescentus)
Test: two-hybrid; bacterial two-hybrid: fusions to the T18c and T25 fragments of adenylate cyclase co-expressed in E. coli BTH101; lacZ reporter, β-galactosidase activity in Miller units (liquid culture, 30°C, 0.5 mM IPTG) and spots on X-gal plates

binding: binds
Substance: CdxA (from UniProt A0A0H3C2L6)

These are yes or no findings as the source states them, for the method shown. A result given as binding can be weak or reduced; the word gives no strength.
